For at least one compound, name, drawing or mass did not settle the structure.
Assays:
[1] = system: glutathione-biosynthesis pathway; test: Administration of BSO and DEM to mice; γ-Glu-X and γ-Glu-X-Gly peptides in the murine serum; format: in vivo; conditions: mouse serum, compared to the normal state
Experimental: Male mice were fasted overnight and anesthetized by an intraperitoneal injection of pentobarbital sodium (60 mg/Kg of body weight). Then, the mice were intraperitoneally injected with BSO, which is aγ-glutamyl cysteine synthase (GCS) inhibitor, and diethylmaleate (DEM), which is an electrophile (GCS activator), both at a dose of 4 mmol/kg of body weight (888 mg of BSO, 688 mg of DEM). The mouse as a healthy subject was intraperitoneally injected with physiological saline. Liver specimens (about 300 mg) were excised from the mice 1 hour after administration (5 times each). On the other hand, regarding the substances in the murine serum, γ-Glu-X peptides and γ-Glu-X-Gly peptides that were decreased by administration of BSO and were increased by administration of an electronic substance, DEM, compared to the normal state were only γ-[…]AB and ophthalmic acid (γ-[…]AB-Gly) (FIG. 22). Therefore, it is expected that, in the case of a mouse, only γ-[…]AB and ophthalmic acid are increased in the blood when glutathione is decreased because of the oxidative stress caused by electrophiles or the like.

[2] = system: glutathione-biosynthesis pathway; test: Administration of GCS inhibitor BSO and GCS activator DEM to mice; metabolites in the livers by CE-TOFMS; format: in vivo; conditions: mouse liver
Experimental: Male mice were fasted overnight and anesthetized by an intraperitoneal injection of pentobarbital sodium (60 mg/Kg of body weight). Then, the mice were intraperitoneally injected with BSO, which is aγ-glutamyl cysteine synthase (GCS) inhibitor, and diethylmaleate (DEM), which is an electrophile (GCS activator), both at a dose of 4 mmol/kg of body weight (888 mg of BSO, 688 mg of DEM). The mouse as a healthy subject was intraperitoneally injected with physiological saline. Liver specimens (about 300 mg) were excised from the mice 1 hour after administration (5 times each).
The liver specimens (about 300 mg) excised from the mice were immediately placed in 1 ml of methanol containing an internal standard substance and were homogenized to inactivate an enzyme, thereby stopping enhancement of metabolism. After 500 μl of pure water was added to the mixture, 300 μl of solution was taken out. To this solution, 200 μl of chloroform was added. After thorough stirring, the solution was further centrifuged at 15000 rpm for 15 minutes at 4° C. After allowing to stand, 300 μl of separated water-methanol phase was passed through a 5 kDa molecular weight cutoff filter for centrifugal ultrafiltration to deproteinize it. […]
The method described below was used to confirm that the detected γ-Glu-X peptides and γ-Glu-X-Gly peptides were synthesized in a glutathione-biosynthesis pathway.

Structure (SMILES): CCOC(=O)/C=C\C(=O)OCC [DEM, diethylmaleate]
- γ-Glu-2AB and ophthalmic acid (γ-Glu-2AB-Gly) in the murine serum [1]: increased
- amount of glutathione in the livers ([2]; 1 hour after i.p. 4 mmol/kg, compared to the healthy mouse): decreased rapidly
- γ-Glu-X and γ-Glu-X-Gly peptidic substances in the liver other than γ-Glu-Cys, GSH and γ-Glu-Ser-Gly ([2]; compared to the normal): increased
